Taken from: PubChem BioAssay AID493246 (Drosophila RNAi Screening Center, 2011)
In all, the deposit lists about 21,000 reagents; below is a random part of those that have a named target and a result. Of all reagents, 429 (2%) were called active. 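Values are raw and not normalised between plates; calls rest on per-plate z-scores that were not deposited.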 The numbers tell different reagents against one gene apart. A plus sign joins genes that one reagent is predicted to hit. Not given: the amount of reagent, the time to read-out.

Screen: 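Identify essential fly genes by loss of cell viability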 (primary screen)
System: Drosophila Kc and S2R+ cells
Reagent: long dsRNA against Drosophila genes
Detection: 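Raw, unnormalised count of remaining cells in each well; per-plate z-scores of cell number underlie the calls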
Scale: Kc cell number and S2R+ cell number: higher = more cells remaining
Hit rule: 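Counted as a hit if cell number falls by a z-score of at least 3 within its plate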

| Kc cell number, rep 1 | Kc cell number, rep 2 | S2R+ cell number, rep 1 | S2R+ cell number, rep 2 | Outcome | Target gene | dsRNA no. |
| --- | --- | --- | --- | --- | --- | --- |
| 1.38e6 | 1.43e6 | 1.05e6 | 1.14e6 | inactive | Rhp | 1 |
| 1.48e6 | 1.49e6 | 1.16e6 | 1.21e6 | inactive | CG6695 | 1 |
| 1.44e6 | 1.59e6 | 1.11e6 | 1.14e6 | inactive | CR40354 | 1 |
| 1.41e6 | 1.54e6 | 1.32e6 | 1.43e6 | inactive | Rga | 1 |
| 1.58e6 | 1.49e6 | 1.05e6 | 1.41e6 | inactive | CG9173 | 1 |
| 1.38e6 | 1.34e6 | 5.85e5 | 9.08e5 | inactive | CG8460 | 1 |
| 1.10e6 | 1.38e6 | 1.02e6 | 1.05e6 | inactive | CG31007 | 1 |
| 1.23e6 | 1.38e6 | 1.25e6 | 1.31e6 | inactive | tra | 1 |
| 1.56e6 | 1.64e6 | 1.23e6 | 1.40e6 | inactive | CG18661 | 1 |
| 1.59e6 | 1.68e6 | 1.22e6 | 1.27e6 | inactive | CG8745 | 1 |
| 1.75e6 | 1.97e6 | 1.36e6 | 1.40e6 | inactive | CG8745 | 2 |
| 1.72e6 | 1.69e6 | 1.42e6 | 1.34e6 | inactive | atlas | 1 |
| 1.64e6 | 1.70e6 | 1.28e6 | 2.72e5 | inactive | CG10343 | 1 |
| 1.43e6 | 1.56e6 | 1.11e6 | 1.25e6 | inactive | CG34251 | 1 |
| 1.65e6 | 1.78e6 | 1.16e6 | 1.38e6 | inactive | CG34251 | 2 |
| 1.59e6 | 1.55e6 | 1.07e6 | 1.17e6 | inactive | CG4318 | 1 |
| 1.47e6 | 1.50e6 | 1.31e6 | 1.31e6 | inactive | CG6665 | 1 |
| 1.45e6 | 1.56e6 | 1.27e6 | 3.28e5 | inactive | CG42365 | 1 |
| 1.53e6 | 1.50e6 | 1.08e6 | 1.19e6 | inactive | Gat | 1 |
| 1.50e6 | 1.40e6 | 9.91e5 | 1.06e6 | inactive | SppL | 1 |

No new results follow: 4 of the entries above.
| Kc cell number, rep 1 | Kc cell number, rep 2 | S2R+ cell number, rep 1 | S2R+ cell number, rep 2 | Outcome | Target gene | dsRNA no. |
| --- | --- | --- | --- | --- | --- | --- |
| 1.48e6 | 1.49e6 | 1.16e6 | 1.21e6 | inactive | CG6695 | 1 |
| 1.44e6 | 1.59e6 | 1.11e6 | 1.14e6 | inactive | CR40354 | 1 |
| 1.41e6 | 1.54e6 | 1.32e6 | 1.43e6 | inactive | Rga | 1 |
| 1.58e6 | 1.49e6 | 1.05e6 | 1.41e6 | inactive | CG9173 | 1 |

More entries follow:
| Kc cell number, rep 1 | Kc cell number, rep 2 | S2R+ cell number, rep 1 | S2R+ cell number, rep 2 | Outcome | Target gene | dsRNA no. |
| --- | --- | --- | --- | --- | --- | --- |
| 1.57e6 | 1.60e6 | 1.18e6 | 1.32e6 | inactive | CG42399 | 1 |
| 1.54e6 | 1.57e6 | 1.17e6 | 1.30e6 | inactive | CG42399 | 2 |
| 1.44e6 | 1.55e6 | 1.14e6 | 1.17e6 | inactive | CG7342 | 1 |
| 1.10e6 | 1.18e6 | 9.44e5 | 1.04e6 | inactive | Rab1 | 1 |
| 1.56e6 | 1.47e6 | 1.20e6 | 1.38e6 | inactive | Gr28a | 1 |
| 1.30e6 | 1.35e6 | 6.49e5 | 6.97e5 | inactive | Gmd | 1 |
| 1.21e6 | 1.30e6 | 1.11e6 | 1.13e6 | inactive | peg | 1 |
| 1.59e6 | 1.63e6 | 1.33e6 | 1.42e6 | inactive | Su(H) | 1 |
| 1.58e6 | 1.63e6 | 1.43e6 | 1.48e6 | inactive | Tpr2 | 1 |
| 1.54e6 | 1.53e6 | 1.19e6 | 1.26e6 | inactive | CG43316 | 1 |
| 1.43e6 | 1.50e6 | 1.17e6 | 1.31e6 | inactive | CG43316 | 2 |
| 1.62e6 | 1.64e6 | 1.26e6 | 1.45e6 | inactive | ppk | 1 |
| 1.31e6 | 1.33e6 | 1.08e6 | 1.18e6 | inactive | CG8141 | 1 |
| 1.32e6 | 1.36e6 | 1.08e6 | 1.19e6 | inactive | Fam92 | 1 |
| 1.47e6 | 1.53e6 | 1.10e6 | 1.23e6 | inactive | CG6472 | 1 |
| 1.51e6 | 1.39e6 | 1.05e6 | 1.14e6 | inactive | CG14384 | 1 |
| 1.20e6 | 1.27e6 | 7.07e5 | 7.90e5 | inactive | PCNA | 1 |
| 1.72e6 | 1.68e6 | 1.24e6 | 1.49e6 | inactive | CG14929 + CG4970 | 1 |
| 1.72e6 | 1.74e6 | 1.26e6 | 1.46e6 | inactive | CG14929 + CG4970 | 2 |
| 1.27e6 | 1.30e6 | 1.02e6 | 1.14e6 | inactive | Qsox3 | 1 |
| 1.65e6 | 1.66e6 | 1.25e6 | 1.48e6 | inactive | CG34458 | 1 |
| 1.60e6 | 1.63e6 | 1.26e6 | 1.41e6 | inactive | Task7 | 1 |
| 1.43e6 | 1.33e6 | 9.97e5 | 1.23e6 | inactive | CG15877 | 1 |
| 1.53e6 | 1.54e6 | 1.25e6 | 1.40e6 | inactive | ACXB | 1 |
| 1.46e6 | 1.56e6 | 1.22e6 | 1.36e6 | inactive | Toll-4 | 1 |
| 1.53e6 | 1.56e6 | 1.21e6 | 1.21e6 | inactive | ReepB | 1 |
| 5.70e5 | – | 8.07e5 | – | inactive | CG9986 | 1 |
| 1.58e6 | 1.57e6 | 1.07e6 | 1.24e6 | inactive | CG15525 | 1 |
| 1.53e6 | 1.50e6 | 9.64e5 | 1.10e6 | inactive | CG1677 | 1 |
| 5.67e5 | – | 8.37e5 | – | inactive | Hap40 | 1 |
| 1.37e6 | 1.48e6 | 1.31e6 | 1.28e6 | inactive | Sidpn | 1 |
| 1.58e6 | 1.57e6 | 1.00e6 | 1.22e6 | inactive | nAChRbeta1 | 1 |
| 1.67e6 | 1.75e6 | 1.37e6 | 1.06e6 | inactive | nAChRbeta1 | 2 |
| 1.33e6 | 1.38e6 | 1.25e6 | 1.34e6 | inactive | snky | 1 |
| 1.27e6 | 1.33e6 | 1.22e6 | 1.12e6 | inactive | CG12253 | 1 |
| 5.30e5 | – | 8.97e5 | – | inactive | spoon | 1 |
| 1.35e6 | 1.44e6 | 9.56e5 | 1.07e6 | inactive | Ubc10 | 1 |
| 9.52e5 | 1.45e6 | 8.61e5 | 9.78e5 | inactive | Rpe | 1 |
| 1.49e6 | 1.57e6 | 1.35e6 | 1.33e6 | inactive | CG6325 | 1 |
